{"source": "patent US20210196779A1", "about": "“Compositions and Methods for Treating Steroid Hormone-Related Diseases or Disorders” (YALE UNIVERSITY, priority 2018, published 2021)", "format_in_all_cases": "cell-based", "key": {"22Rv1 cells": {"system": "22Rv1 cells", "assay": "Cell growth assay, 22Rv1 prostate cancer cells", "settings": "Homo sapiens, 22Rv1, 96 h, 4 days, read-out: IC50 for the inhibition of growth", "experimental": "(§1) 22RV1 or LNCaP prostate cancer cells were grown in corning T75 cell culture flasks in RPMI1640 medium supplemented with 5% FBS, 50 μg/ml Kanamycin in a 37° C., 5% CO2 incubator.\n(§2) 20,000 cells in 1 ml of medium (phenol red free RPMI1640, 5% charcoal-dialysis FBS, 50 μg/ml Kanamyacin) were seeded per well of a 24-well plate and incubated in a 37° C. incubator with 5% CO2 overnight. Different concentrations of herbal extract were added to each well in order to have final concentrations from 50 μg/ml to 500 μg/ml. For prostate cancer cells, DHT (25 nM) was used to stimulate androgen receptor activity. For glucocorticoid receptor overexpressed LNCaP cells, dexamethasone (50 nM) was used to stimulate glucocorticoid receptor activity. For all breast cancer cells, E2 (10 nM) was used to stimulate ER activity. Control medium without any steroid hormone was used as a control setting. After 4 days of incubation, cells were fixed and stained for 2 h with 0.5% methylene blue in 50% ethanol, followed by washing with tap water to remove unbound dye. Plates were air dried and then cells were dissolved in 1% sarkosyl (sodium lauroyl sarcosinate) by shaking at room temperature for 3 h. Cell growth was quantified based on the amount of methylene blue adsorbed by the cells as measured by a spectrophotometer (Molecular Devices) at 595 nm. All experiments were performed in triplicate wells and were repeated at least three times."}, "PC3 cells": {"system": "PC3 cells", "assay": "Cell growth assay, PC3 cells", "settings": "Homo sapiens, PC-3, 96 h, 4 days, read-out: IC50 for the inhibition of growth", "experimental": "as §2"}, "LNCaP cells": {"system": "LNCaP cells", "assay": "Cell growth assay, LNCaP prostate cancer cells", "settings": "Homo sapiens, 96 h, 4 days, read-out: IC50 for the inhibition of growth", "experimental": "as §1\nas §2, with “All experiments were performed in triplicate wells and were repeated at least three times.” left out"}, "[1]": {"system": "LNCaP-GR (GR overexpressing) cells", "assay": "Cell growth assay, GR overexpressing LNCaP cells", "settings": "Homo sapiens, 96 h, 4 days, read-out: IC50 for the inhibition of growth", "experimental": "as §2"}}, "note": "Like-named read-outs stand apart in the source and are kept apart here."}
{"molecule": "CNC(=O)c1ccc(N2C(=S)N(c3ccc(C#N)c(C(F)(F)F)c3)C(=O)C2(C)C)cc1F", "note": "[Enzalutamide, reference compound]", "values": [{"measurement": "IC50", "setting": "22Rv1 cells; 22Rv1, no DHT/DEX", "result": "> 5", "unit": "µM"}, {"measurement": "IC50", "setting": "22Rv1 cells; 22Rv1 w/DEX 50 nM", "result": "> 5", "unit": "µM"}, {"measurement": "IC50", "setting": "22Rv1 cells; 22Rv1 w/DHT 25 nM", "result": "> 5", "unit": "µM"}, {"measurement": "IC50", "setting": "PC3 cells; PC3, no DEX", "result": "> 5", "unit": "µM"}, {"measurement": "IC50", "setting": "PC3 cells; PC3 w/DEX 50 nM", "result": "> 5", "unit": "µM"}, {"measurement": "IC50", "setting": "LNCaP cells; LNCaP w/DHT 2 nM", "result": 0.5, "unit": "µM"}, {"measurement": "IC50", "setting": "LNCaP cells; no DHT", "result": "> 5", "unit": "µM"}, {"measurement": "IC50", "setting": "[1]; LNCaP-GR w/DEX 50 nM", "result": "> 5", "unit": "µM"}, {"measurement": "IC50", "setting": "[1]; LNCaP-GR w/DHT 2 nM", "result": 0.5, "unit": "µM"}, {"measurement": "IC50", "setting": "[1]; LNCaP-GR, no DHT/DEX", "result": "> 5", "unit": "µM"}]}
